Measured values: patent publication US20070185089A1, “Benzazepine derivatives for the treatment of neurological and psychiatric disorders” (Glaxo Group Limited, priority 2004, published 2007)
Where “and” joins values, the source holds several entries; their conditions need not be identical. Equal values may be shown once. Some of these results come from one statement about several compounds together. At least one compound was matched to its structure with a doubt left.

The chains behind the UniProt entries cited, without tags or fusion partners. Where a name states a change or a piece, a line headed by the entry shows the natural chain unless it says otherwise.
UniProt P35367, whole entry: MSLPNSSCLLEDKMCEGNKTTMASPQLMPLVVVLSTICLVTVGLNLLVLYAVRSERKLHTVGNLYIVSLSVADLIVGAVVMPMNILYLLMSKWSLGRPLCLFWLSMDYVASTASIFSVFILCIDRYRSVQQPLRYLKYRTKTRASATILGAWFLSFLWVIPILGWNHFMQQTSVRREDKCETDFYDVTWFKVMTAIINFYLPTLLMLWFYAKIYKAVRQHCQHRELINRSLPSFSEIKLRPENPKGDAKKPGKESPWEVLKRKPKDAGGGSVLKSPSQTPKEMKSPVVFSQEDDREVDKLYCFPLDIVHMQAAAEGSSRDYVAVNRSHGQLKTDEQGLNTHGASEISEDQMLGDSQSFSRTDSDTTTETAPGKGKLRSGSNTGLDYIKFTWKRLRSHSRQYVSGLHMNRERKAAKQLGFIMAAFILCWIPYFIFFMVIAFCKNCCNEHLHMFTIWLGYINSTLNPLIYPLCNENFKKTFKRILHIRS
UniProt Q9Y5N1: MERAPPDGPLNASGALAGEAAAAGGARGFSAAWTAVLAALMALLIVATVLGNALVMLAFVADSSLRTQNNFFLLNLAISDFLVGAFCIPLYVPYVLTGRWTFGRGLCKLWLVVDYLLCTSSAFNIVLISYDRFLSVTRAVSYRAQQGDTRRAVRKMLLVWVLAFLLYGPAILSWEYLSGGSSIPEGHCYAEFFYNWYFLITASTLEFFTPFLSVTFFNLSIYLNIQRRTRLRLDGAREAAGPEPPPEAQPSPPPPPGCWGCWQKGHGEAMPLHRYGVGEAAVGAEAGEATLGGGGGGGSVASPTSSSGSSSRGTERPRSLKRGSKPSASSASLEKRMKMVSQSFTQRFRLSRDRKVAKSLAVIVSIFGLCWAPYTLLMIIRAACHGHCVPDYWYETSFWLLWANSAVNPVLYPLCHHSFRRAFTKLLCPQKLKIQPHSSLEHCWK

Assays:
human H1 receptor = molecular target: T1, human H1 receptor (Homo sapiens, UniProt P35367); assay: Histamine H1 functional antagonist assay (FLIPR, cell fluorescence); type: cell-based; conditions: CHO cells expressing human H1 receptor, histamine at EC80
T1 construct: expressed in transfected cells

histamine H3 receptor = molecular target: T2, histamine H3 receptor (Homo sapiens, UniProt Q9Y5N1); assay: Histamine H3 functional antagonist assay (method A), [35S]-GTPγS SPA on membranes; type: biochemical; conditions: histamine at EC80
T2 construct: expressed in transfected cells; host or cells: CHO K1 cells carrying pSwitch, transfected with pGeneH3; mifepristone-induced; clone 3H3; membranes

Compound | antagonism in the histamine H1 functional antagonist assay (human H1 receptor) [pKb] | antagonism in the histamine H3 functional antagonist assay (method A) (histamine H3 receptor)
O=C(c1cccnc1)N1CCC(c2ccc3c(c2)CCN(C2CCC2)CC3)CC1 [Example E216, 3-cyclobutyl-7-[1-(3-pyridinylcarbonyl)-4-piperidinyl]-2,3,4,5-tetrahydro-1H-3-benzazepine] | < 6.3 | > 9.0 pKb and > 6.5 pKb
N#Cc1ccc(NC(=O)N2CCC(c3ccc4c(c3)CCN(C3CCC3)CC4)CC2)cn1 [Example E244, N-(6-cyano-3-pyridinyl)-4-(3-cyclobutyl-2,3,4,5-tetrahydro-1H-3-benzazepin-7-yl)-1-piperidinecarboxamide] | < 6.3 | > 9.0 pKb and > 6.5 pKb
Cc1nc(C)c(S(=O)(=O)N2CCN(c3ccc4c(c3)CCN(C3CCCC3)CC4)CC2)s1 [Example E32] | < 6.3 | > 6.5 pKb
CS(=O)(=O)N1CCN(c2ccc3c(c2)CCN(C2CCCC2)CC3)CC1 [Example E61, 3-Cyclopentyl-7-[4-(methylsulfonyl)-1-piperazinyl]-2,3,4,5-tetrahydro-1H-3-benzazepine] | < 6.3 | > 6.5 pKb
COc1cccc(NC(=O)N2CCN(c3ccc4c(c3)CCN(C3CCC3)CC4)CC2)c1 [Example E12, 4-(3-Cyclobutyl-2,3,4,5-tetrahydro-1H-3-benzazepin-7-yl)-N-[3-(methyloxy)phenyl]-1-piperazinecarboxamide] | < 6.3 | > 9.0 pKb and > 6.5 pKb
O=C(Nc1cccs1)N1CCN(c2ccc3c(c2)CCN(C2CCCC2)CC3)CC1 [Example E191, 4-(3-Cyclopentyl-2,3,4,5-tetrahydro-1H-3-benzazepin-7-yl)-N-2-thienyl-1-piperazinecarboxamide] | < 6.3 | > 6.5 pKb
Cc1cc(S(=O)(=O)N2CCN(c3ccc4c(c3)CCN(C3CCCC3)CC4)CC2)c(C)s1 [Example E86, 3-Cyclopentyl-7-{4-[(2,5-dimethyl-3-thienyl)sulfonyl]-1-piperazinyl}-2,3,4,5-tetrahydro-1H-3-benzazepine] | < 6.3 | > 6.5 pKb
CNC(=O)c1ccc(-c2ccc3c(c2)CCN(C2CCC2)CC3)nc1 [Example E198, 6-(3-Cyclobutyl-2,3,4,5-tetrahydro-1H-3-benzazepin-7-yl)-N-methyl-3-pyridinecarboxamide] | < 6.3 | > 6.5 pKb
O=C(O)C(F)(F)F.O=C(c1ccc2ccccc2c1)N1CCN(c2ccc3c(c2)CCN(C2CCCC2)CC3)CC1 [Example E110, 3-Cyclopentyl-7-[4-(2-naphthalenylcarbonyl)-1-piperazinyl]-2,3,4,5-tetrahydro-1H-3-benzazepine trifluoroacetate salt] | < 6.3 | > 6.5 pKb
O=C(c1cnccn1)N1CCC(c2ccc3c(c2)CCN(C2CCC2)CC3)CC1 [Example E209, 3-cyclobutyl-7-[1-(2-pyrazinylcarbonyl)-4-piperidinyl]-2,3,4,5-tetrahydro-1H-3-benzazepine] | < 6.3 | > 9.0 pKb and > 6.5 pKb
O=C(O)c1ccc(S(=O)(=O)N2CCN(c3ccc4c(c3)CCN(C3CCCC3)CC4)CC2)cc1 [Example E50, 4-{[4-(3-Cyclopentyl-2,3,4,5-tetrahydro-1H-3-benzazepin-7-yl)-1-piperazinyl]sulfonyl}benzoic acid] | < 6.3 | > 6.5 pKb
O=S(=O)(c1cc(Cl)cc(Cl)c1)N1CCN(c2ccc3c(c2)CCN(C2CCCC2)CC3)CC1 [Example E68, 3-Cyclopentyl-7-{4-[(3,5-dichlorophenyl)sulfonyl]-1-piperazinyl}-2,3,4,5-tetrahydro-1H-3-benzazepine] | < 6.3 | > 6.5 pKb
O=S(=O)(c1cccc(C(F)(F)F)c1)N1CCN(c2ccc3c(c2)CCN(C2CCCC2)CC3)CC1 [Example E62, 3-Cyclopentyl-7-(4-{[3-(trifluoromethyl)Phenyl]sulfonyl}1-piperazinyl)-2,3,4,5-tetrahydro-1H-3-benzazepine] | < 6.3 | > 6.5 pKb
CCc1cc(Br)ccc1S(=O)(=O)N1CCN(c2ccc3c(c2)CCN(C2CCCC2)CC3)CC1 [Example E83, 7-{4-[(4-Bromo-2-ethylphenyl)sulfonyl]-1-piperazinyl}-3-cyclopentyl-2,3,4,5-tetrahydro-1H-3-benzazepine] | < 6.3 | > 6.5 pKb
O=C(C1CCOCC1)N1CCC(c2ccc3c(c2)CCN(C2CCC2)CC3)CC1 [Example E206, 3-cyclobutyl-7-[1-(tetrahydro-2H-pyran-4-ylcarbonyl)-4-piperidinyl]-2,3,4,5-tetrahydro-1 H-3-benzazepine] | < 6.3 | > 9.0 pKb and > 6.5 pKb
O=S(=O)(c1ccc2nsnc2c1)N1CCN(c2ccc3c(c2)CCN(C2CCCC2)CC3)CC1 [Example E80, 7-[4-(2,1,3-Benzothiadiazol-5-ylsulfonyl)-1-piperazinyl]-3-cyclopentyl-2,3,4,5-tetrahydro-1H-3-benzazepine] | < 6.3 | > 6.5 pKb
COc1cc(C)ccc1S(=O)(=O)N1CCN(c2ccc3c(c2)CCN(C2CCCC2)CC3)CC1 [Example E87, 3-Cyclopentyl-7-(4-{[4-methyl-2-(methyloxy)phenyl]sulfonyl}-1-piperazinyl)-2,3,4,5-tetrahydro-1H-3-benzazepine] | < 6.3 | > 9.0 pKb and > 6.5 pKb
O=S(=O)(c1cc2c(Cl)cccc2s1)N1CCN(c2ccc3c(c2)CCN(C2CCCC2)CC3)CC1 [Example E64, 7-{4-[(4-Chloro-1-benzothien-2-yl)sulfonyl]-1-piperazinyl}-3-cyclopentyl-2,3,4,5-tetrahydro-1H-3-benzazepine] | < 6.3 | > 6.5 pKb
Cn1cnc(S(=O)(=O)N2CCN(c3ccc4c(c3)CCN(C3CCCC3)CC4)CC2)c1 [Example E31, 3-Cyclopentyl-7-{4-[(1-methyl-1H-imidazol-4-yl)sulfonyl]-1-piperazinyl}-2,3,4,5-tetrahydro-1H-3-benzazepine] | < 6.3 | > 6.5 pKb
Cc1noc(C)c1S(=O)(=O)N1CCN(c2ccc3c(c2)CCN(C2CCCC2)CC3)CC1 [Example E71, 3-Cyclopentyl-7-{4-[(3,5-dimethyl-4-isoxazolyl)sulfonyl]-1-piperazinyl}-2,3,4,5-tetrahydro-1H-3-benzazepine] | < 6.3 | > 6.5 pKb
N#Cc1ccccc1N1CCN(c2ccc3c(c2)CCN(C2CCC2)CC3)CC1 [Example E3, 2-[4-(3-Cyclobutyl-2,3,4,5-tetrahydro-1H-3-benzazepin-7-yl)-1-piperazinyl]benzonitrile] | < 6.3 | > 9.0 pKb and > 6.5 pKb
O=S(=O)(Cc1ccc(C(F)(F)F)cc1)N1CCN(c2ccc3c(c2)CCN(C2CCCC2)CC3)CC1 [Example E76, 3-Cyclopentyl-7-[4-({[4-(trifluoromethyl)phenyl]methyl}sulfonyl)-1-piperazinyl]-2,3,4,5-tetrahydro-1H-3-benzazepine] | < 6.3 | > 6.5 pKb
O=S(=O)(c1ccc(-c2ccon2)s1)N1CCN(c2ccc3c(c2)CCN(C2CCCC2)CC3)CC1 [Example E79, 3-Cyclopentyl-7-(4-{[5-(3-isoxazolyl)-2-thienyl]sulfonyl}-1-piperazinyl)-2,3,4,5-tetrahydro-1H-3-benzazepine] | < 6.3 | > 6.5 pKb
Cc1nc(S(=O)(=O)N2CCN(c3ccc4c(c3)CCN(C3CCCC3)CC4)CC2)cn1C [Example E66, 3-Cyclopentyl-7-{4-[(1,2-dimethyl-1H-imidazol-4-yl)sulfonyl]-1-piperazinyl}-2,3,4,5-tetrahydro-1H-3-benzazepine] | < 6.3 | > 6.5 pKb
CS(=O)(=O)c1ccc(S(=O)(=O)N2CCN(c3ccc4c(c3)CCN(C3CCCC3)CC4)CC2)cc1 [Example E89, 3-Cyclopentyl-7-(4-{[4-(methylsulfonyl)phenyl]sulfonyl}-1-piperazinyl)-2,3,4,5-tetrahydro-1H-3-benzazepine] | < 6.3 | > 6.5 pKb
O=C(Nc1cccnc1)c1ccc(-c2ccc3c(c2)CCN(C2CCC2)CC3)cc1 [Example E245, 4-(3-cyclobutyl-2,3,4,5-tetrahydro-1H-3-benzazepin-7-yl)-N-3-pyridinylbenzamide] | < 6.3 | > 9.0 pKb and > 6.5 pKb
N#Cc1cccc(NC(=O)N2CCC(c3ccc4c(c3)CCN(C3CCC3)CC4)CC2)c1 [Example E242, N-(3-Cyanophenyl)-4-(3-cyclobutyl-2,3,4,5-tetrahydro-1H-3-benzazepin-7-yl)-1-piperidinecarboxamide] | < 6.3 | > 9.0 pKb and > 6.5 pKb
